{"source": "PubChem BioAssay AID602313", "about": "(National Center for Advancing Translational Sciences (NCATS), 2012)", "note": "Among all 390,000 compounds or so, about 760 (0.19%) were called active. Inconclusive results, whose numbers are uncertain, are shown with a selection of clear calls. Calls come from the whole dose curve; as a rule, active = well fitted inhibition curve with a large enough effect; inconclusive = small, poorly fitted or top-dose-only effect; inactive = flat fitted curve, though single readings scatter. Where the call is inconclusive, the potency comes from a doubtful curve fit. Potency is the fitted concentration of half-maximal effect.", "data": [{"experiment": "qHTS for Inhibitors of Vif-A3F Interactions: qHTS; note: nearly all actives have a fitted effect of over 65% in size; for activity, negative = active: % of control where 0% means no effect", "conditions": "HeLa A3F-eYFP + Vif (tagged APOBEC3F with the HIV-1 protein that degrades it), YFP fluorescence increase; series mostly up to 46.1 µM; activity, negative = active: at the top concentration", "summary_of_the_method": "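Fluorescence increase (Ex 488/Em 500-530) after overnight compound treatment at 37 deg C flags inhibition of Vif-driven A3F-eYFP loss in stable HeLa A3F-eYFP/Vif cells seeded overnight beforehand.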", "values": [{"compound": "CCOc1cc(CNCc2ccccn2)cc(Cl)c1OC", "Potency": "inconclusive: 5.62 µM [inhibitor, single point]"}, {"compound": "COc1ccc2nc(N3C(=O)/C(=C/c4ccccc4)NC3=S)sc2c1", "Potency": "active: 12.6 µM"}, {"compound": "COc1ccc(C2CC2C(C)=O)cc1", "note": "(stereo not drawn)", "Potency": "inconclusive: 25.1 µM [inhibitor, single point]"}, {"compound": "CCOc1ccc(C(c2c(O)cc(C)n(CCOC)c2=O)N2CCN(c3ccccc3)CC2)cc1", "note": "(stereo not drawn)", "activity, negative = active": "inactive: 5.61%"}, {"compound": "CCN(C(=O)CCS(=O)(=O)c1cc2[nH]c(=O)c(=O)[nH]c2cc1C)c1ccccc1", "activity, negative = active": "inactive: 0.356%"}, {"compound": "Cc1ccc(NC(=O)C(Cc2ccccc2)n2cccc2)cc1", "note": "(stereo not drawn)", "Potency": "inconclusive: 5.62 µM [inhibitor, single point]"}, {"compound": "Cc1cc(NCc2ccccn2)n2ncc(-c3ccccc3)c2n1", "Potency": "inconclusive: 3.16 µM [inhibitor, single point]"}, {"compound": "COc1ccc(CNC(=O)Cn2ncc3c4ccccc4n(Cc4cccc(Cl)c4)c3c2=O)cc1", "Potency": "inconclusive: 35.5 µM [inhibitor, single point]"}, {"compound": "COCCOC(=O)c1c(NC(=O)CSc2cccc[n+]2[O-])sc(C(N)=O)c1C", "Potency": "inconclusive: 35.5 µM [inhibitor, single point]"}, {"compound": "Cc1ccc(C)c(S(=O)(=O)c2cn(C)c3cc(N4CCCCC4C)c(F)cc3c2=O)c1", "note": "(stereo not drawn)", "activity, negative = active": "inactive: 0.8%"}, {"compound": "COc1cc(C2NC(=O)c3c(sc4c3CCN(C)C4)N2)cc(Br)c1OC(=O)c1ccc(C)cc1", "note": "(stereo not drawn)", "Potency": "inconclusive: 35.5 µM [inhibitor, single point]"}, {"compound": "CC1=C(C(=O)N(C)C)CC(CC(=O)NC2CCCCC2)C(=O)N1Cc1ccc(C(C)(C)C)cc1", "note": "(stereo not drawn)", "activity, negative = active": "inactive: -0.988%"}, {"compound": "Cc1ccc(Nc2nnc(SCC(O)=C(C#N)c3nc4ccccc4[nH]3)s2)c(C)c1", "Potency": "inconclusive: 11.2 µM [inhibitor, partial curve]"}, {"compound": "N#CCCN(CCC#N)C(=O)c1ccc2c(c1)OCO2", "activity, negative = active": "inactive: 2.31%"}, {"compound": "CS(=O)(=O)O/N=C1\\CCCCC1c1ccc([N+](=O)[O-])cc1[N+](=O)[O-]", "note": "(stereo not drawn)", "Potency": "inconclusive: 3.55 µM [inhibitor, partial curve, poor fit]"}, {"compound": "CCOc1ccc(OCC)c(NC(=O)c2[nH]c(C)c(C(C)=O)c2C)c1", "Potency": "inconclusive: 35.5 µM [inhibitor, single point]"}, {"compound": "Nc1ccc2c(c1)C(=O)c1ccccc1C2=O", "Potency": "inconclusive: 14.1 µM [inhibitor, partial curve, poor fit]"}, {"compound": "CCOc1ccc(C(=O)NCC(=O)NNC(=O)CN(C)S(=O)(=O)c2ccc(Cl)cc2)cc1OCC", "Potency": "inconclusive: 35.5 µM [inhibitor, partial curve, poor fit]"}, {"compound": "CCOC(=O)CN1C=C(c2ccc3ccccc3n2)C(C[N+](=O)[O-])c2ccccc21", "note": "(stereo not drawn)", "Potency": "inconclusive: 31.6 µM [inhibitor, single point]"}, {"compound": "COc1cc(C(c2c(O)cc(C)[nH]c2=O)c2c(O)cc(C)[nH]c2=O)ccc1O", "Potency": "inconclusive: 2.24 µM [inhibitor, partial curve, poor fit]"}, {"compound": "CCN(CC)CCNC(=S)NC(=O)c1cn(-c2ccccc2)nc1-c1ccc(OC)cc1", "Potency": "inconclusive: 25.1 µM [inhibitor, single point]"}, {"compound": "Nc1ccccc1Nc1nc2ccccc2[nH]1", "Potency": "inconclusive: 2.24 µM [inhibitor, partial curve, poor fit]"}, {"compound": "CCOC(=O)C1CCN(C(=O)c2ccc(OCC(=O)Nc3cccc(C(F)(F)F)c3)c(OC)c2)CC1", "Potency": "inconclusive: 6.31 µM [inhibitor, single point]"}, {"compound": "Cc1cc2nc(-c3ccc(SCC(=O)Nc4ccc(S(=O)(=O)N5CCCC5)cc4)nc3)[nH]c2cc1C", "Potency": "active: 11.2 µM"}, {"compound": "O=C(NC(=S)Nc1ccccc1[N+](=O)[O-])c1ccccc1Cl", "Potency": "inconclusive: 35.5 µM [inhibitor, single point]"}, {"compound": "CCN1CCc2c(sc(NC(=O)c3ccc(S(=O)(=O)N(CC)c4ccccc4)cc3)c2C(N)=O)C1", "Potency": "inconclusive: 5.62 µM [inhibitor, single point]"}, {"compound": "Oc1sc(C=Nc2ccccc2)c2ccccc12", "Potency": "active: 25.1 µM"}, {"compound": "Cn1c(=O)c2[nH]c(-c3ccccc3Cl)c(O)c2n(C)c1=O", "Potency": "inconclusive: 35.5 µM [inhibitor, single point]"}, {"compound": "O=C(Nc1ccc(-c2cn3c(n2)SCC3)cc1)c1ccc2c(c1)OCO2", "Potency": "inconclusive: 11.2 µM [inhibitor, partial curve, poor fit]"}, {"compound": "CCS(=O)(=O)Nc1ccc(C2=NN(S(=O)(=O)c3ccc(F)cc3)C(c3ccco3)C2)cc1", "note": "(stereo not drawn)", "Potency": "inconclusive: 28.2 µM [inhibitor, single point]"}, {"compound": "CN(C)S(=O)(=O)c1ccc(C(=O)Nc2nc(-c3cc4ccccc4o3)cs2)cc1", "activity, negative = active": "inactive: 1.87%"}, {"compound": "O=C(c1cnn(-c2ccc(F)cc2)c1-n1cccc1)N1CCN(c2ccccc2)CC1", "activity, negative = active": "inactive: 10.8%"}, {"compound": "Cc1ccc(NC(=S)Nc2ccc(F)cc2)cc1C", "Potency": "inconclusive: 35.5 µM [inhibitor, single point]"}, {"compound": "Cc1cc(F)ccc1NCC(=O)Nc1ccc(Br)cc1C", "Potency": "inconclusive: 35.5 µM [inhibitor, single point]"}, {"compound": "CC1CCc2[nH]c3ccc(C(=O)N4CCCC(C(F)(F)F)C4)cc3c2C1", "note": "(stereo not drawn)", "Potency": "inconclusive: 35.5 µM [inhibitor, single point]"}, {"compound": "CCN(CC)c1ccc(C2C(C(N)=O)=C(C)Nc3nc(SCc4ccccc4Cl)nn32)cc1", "note": "(stereo not drawn)", "Potency": "inconclusive: 31.6 µM [inhibitor, single point]"}, {"compound": "CCN(CC)c1ccc(/C=c2/sc3nnc(-c4ccccc4C)n3c2=O)cc1", "Potency": "active: 1.26 µM"}, {"compound": "CCOc1cc(/C=C2\\N=C(SC(C)C(N)=O)N(c3ccc(OC(F)F)cc3)C2=O)ccc1O", "note": "(stereo not drawn)", "Potency": "inconclusive: 15.8 µM [inhibitor, partial curve, poor fit]"}, {"compound": "Cc1nc(SC(C)C(=O)Nc2cccc(C(F)(F)F)c2)c2c(C)c(C(=O)O)sc2n1", "note": "(stereo not drawn)", "Potency": "inconclusive: 1.12 µM [inhibitor, partial curve, poor fit]"}, {"compound": "COc1ccccc1C(=O)NCCC(=O)N(C)CC(=O)Nc1c(Cl)cccc1Cl", "Potency": "inconclusive: 1.26 µM [inhibitor, partial curve, poor fit]"}, {"compound": "S=C1NC2(CCCCC2)NN1c1ccccc1", "activity, negative = active": "inactive: -4.33%"}, {"compound": "O=C(Nc1nc2ccc([N+](=O)[O-])cc2s1)c1c(F)cccc1F", "Potency": "inconclusive: 35.5 µM [inhibitor, single point]"}, {"compound": "O=C(N/N=C/c1ccccc1Cl)c1[nH]c2ccc(Br)cc2c1-c1ccccc1", "Potency": "inconclusive: 10 µM [inhibitor, partial curve, poor fit]"}, {"compound": "C=CCOc1cccc(/C=C2\\C(=O)N(Cc3ccc(C)cc3)C(C)=C2C(=O)OC)c1", "Potency": "inconclusive: 35.5 µM [inhibitor, single point]"}, {"compound": "COP(=O)(CN(Cc1ccccc1)C(=S)Nc1c(C)cccc1C)OC", "Potency": "inconclusive: 2 µM [inhibitor, partial curve, poor fit]"}, {"compound": "CCc1cnc2c(c1SC(C(C)=O)C(=O)N(C)C)c(=O)n(C)c(=O)n2C", "note": "(stereo not drawn)", "Potency": "inconclusive: 35.5 µM [inhibitor, single point]"}, {"compound": "CC(C)c1cc(-c2nc(-c3ccc(Cl)cc3)no2)n[nH]1", "activity, negative = active": "inactive: 0.195%"}, {"compound": "CC1=C(C(N)=O)S(=O)(=O)c2ccccc21", "activity, negative = active": "inactive: -0.404%"}, {"compound": "COc1ccc(-c2csc(/C(C#N)=C\\c3ccc(OC)c([N+](=O)[O-])c3)n2)cc1", "Potency": "inconclusive: 35.5 µM [inhibitor, single point]"}, {"compound": "CNC(=O)CSc1nc2ccccc2c(=O)n1CCc1ccccc1", "Potency": "inconclusive: 5.62 µM [inhibitor, single point]"}, {"compound": "O=C(CSc1nnc(-c2ccco2)c(-c2ccco2)n1)c1ccccc1", "Potency": "inconclusive: 35.5 µM [inhibitor, single point]"}, {"compound": "CN(Cc1ccccc1)C(=O)COC(=O)c1ccc(=O)n(Cc2ccccc2)n1", "Potency": "inconclusive: 7.08 µM [inhibitor, partial curve, poor fit]"}, {"compound": "COc1c(Cl)cc(C(=O)NN)cc1Cl", "Potency": "inconclusive: 22.4 µM [inhibitor, single point]"}, {"compound": "O=C(N/C(=C\\c1ccc(Cl)cc1)C(=O)N1CCOCC1)c1ccc([N+](=O)[O-])cc1", "Potency": "inconclusive: 22.4 µM [inhibitor, single point]"}, {"compound": "Cc1ccc(/C=N/Nc2ccc3c(C(F)(F)F)cc(C(F)(F)F)nc3n2)cc1", "Potency": "inconclusive: 35.5 µM [inhibitor, single point]"}, {"compound": "CC(=O)NC(NC(=S)Nc1ccc(N=Nc2ccccc2C)cc1C)C(Cl)(Cl)Cl", "note": "(stereo not drawn)", "Potency": "inconclusive: 25.1 µM [inhibitor, single point]"}, {"compound": "CCOc1ccc(NC(=O)COn2nnc3ccc(S(=O)(=O)N4CCOCC4)cc32)cc1", "Potency": "inconclusive: 35.5 µM [inhibitor, single point]"}, {"compound": "O=C(Cn1cc(C(F)(F)F)cc(Cl)c1=O)NCc1ccc(Cl)cc1", "Potency": "inconclusive: 22.4 µM [inhibitor, single point]"}, {"compound": "CC(C)(C)c1ccc(C(=O)Nc2nnc3n2CCS3)cc1", "Potency": "inconclusive: 12.6 µM [inhibitor, partial curve, poor fit]"}, {"compound": "Cc1nn(CCO)c(N)c1C1(O)C(=O)Nc2c(Cl)cc(Cl)cc21", "note": "(stereo not drawn)", "Potency": "inconclusive: 5.62 µM [inhibitor, single point]"}, {"compound": "COc1ccc(C2=CC(=O)C[C@H](c3ccc(OC)c(OC)c3)C2)cn1", "activity, negative = active": "inactive: -1.81%"}, {"compound": "CCN(C(=O)COC(=O)/C(=C/c1ccccc1)NC(C)=O)c1c(N)n(Cc2ccccc2)c(=O)[nH]c1=O", "Potency": "inconclusive: 5.01 µM [inhibitor, partial curve, poor fit]"}, {"compound": "N#CC1=C(S)N(c2ccc(F)cc2)C2(CCCCC2)NC1=O", "Potency": "active: 11.2 µM"}]}]}
